Measurements taken from article doi:10.1101/2023.03.14.532478.
Read-outs that look alike come from different tables or passages of the source. No constants are given. Whether binding was seen depends on the method and setting. Some entries that bind do so weakly or less than the wild type. Each block holds one molecule with its values, some of them ahead of it.

By UniProt entry, the sequences of proteins in these tests, tags left out.
UniProt Q9BYG3: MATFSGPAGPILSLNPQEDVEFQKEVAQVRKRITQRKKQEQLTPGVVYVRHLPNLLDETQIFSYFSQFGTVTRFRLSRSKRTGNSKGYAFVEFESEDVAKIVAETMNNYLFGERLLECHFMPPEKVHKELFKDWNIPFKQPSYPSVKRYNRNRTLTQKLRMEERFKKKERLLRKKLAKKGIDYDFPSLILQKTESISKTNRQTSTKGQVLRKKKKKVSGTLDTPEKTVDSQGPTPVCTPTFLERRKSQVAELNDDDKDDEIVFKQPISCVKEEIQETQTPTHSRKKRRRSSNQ
UniProt Q8TDD1: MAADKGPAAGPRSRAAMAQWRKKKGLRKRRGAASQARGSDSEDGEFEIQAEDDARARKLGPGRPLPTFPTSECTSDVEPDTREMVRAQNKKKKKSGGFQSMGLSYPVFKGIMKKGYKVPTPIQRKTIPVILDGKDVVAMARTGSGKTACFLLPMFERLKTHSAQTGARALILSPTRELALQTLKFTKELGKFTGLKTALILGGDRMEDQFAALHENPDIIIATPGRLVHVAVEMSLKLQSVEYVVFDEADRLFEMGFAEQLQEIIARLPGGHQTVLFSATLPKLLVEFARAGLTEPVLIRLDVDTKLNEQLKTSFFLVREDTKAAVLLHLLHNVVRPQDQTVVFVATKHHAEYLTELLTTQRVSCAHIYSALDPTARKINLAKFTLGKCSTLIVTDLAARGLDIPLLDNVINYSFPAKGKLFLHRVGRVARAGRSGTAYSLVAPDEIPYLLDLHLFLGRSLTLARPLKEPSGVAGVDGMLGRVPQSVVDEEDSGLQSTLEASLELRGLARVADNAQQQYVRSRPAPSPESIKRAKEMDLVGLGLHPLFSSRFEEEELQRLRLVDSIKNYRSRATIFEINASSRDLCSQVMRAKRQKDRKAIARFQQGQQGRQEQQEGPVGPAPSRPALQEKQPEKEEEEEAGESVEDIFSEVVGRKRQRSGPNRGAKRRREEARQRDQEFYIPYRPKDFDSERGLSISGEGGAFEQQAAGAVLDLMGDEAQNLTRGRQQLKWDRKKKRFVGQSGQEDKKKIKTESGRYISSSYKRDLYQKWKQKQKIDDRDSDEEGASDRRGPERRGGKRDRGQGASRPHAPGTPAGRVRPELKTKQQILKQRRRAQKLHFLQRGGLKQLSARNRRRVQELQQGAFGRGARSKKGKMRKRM
UniProt Q14137: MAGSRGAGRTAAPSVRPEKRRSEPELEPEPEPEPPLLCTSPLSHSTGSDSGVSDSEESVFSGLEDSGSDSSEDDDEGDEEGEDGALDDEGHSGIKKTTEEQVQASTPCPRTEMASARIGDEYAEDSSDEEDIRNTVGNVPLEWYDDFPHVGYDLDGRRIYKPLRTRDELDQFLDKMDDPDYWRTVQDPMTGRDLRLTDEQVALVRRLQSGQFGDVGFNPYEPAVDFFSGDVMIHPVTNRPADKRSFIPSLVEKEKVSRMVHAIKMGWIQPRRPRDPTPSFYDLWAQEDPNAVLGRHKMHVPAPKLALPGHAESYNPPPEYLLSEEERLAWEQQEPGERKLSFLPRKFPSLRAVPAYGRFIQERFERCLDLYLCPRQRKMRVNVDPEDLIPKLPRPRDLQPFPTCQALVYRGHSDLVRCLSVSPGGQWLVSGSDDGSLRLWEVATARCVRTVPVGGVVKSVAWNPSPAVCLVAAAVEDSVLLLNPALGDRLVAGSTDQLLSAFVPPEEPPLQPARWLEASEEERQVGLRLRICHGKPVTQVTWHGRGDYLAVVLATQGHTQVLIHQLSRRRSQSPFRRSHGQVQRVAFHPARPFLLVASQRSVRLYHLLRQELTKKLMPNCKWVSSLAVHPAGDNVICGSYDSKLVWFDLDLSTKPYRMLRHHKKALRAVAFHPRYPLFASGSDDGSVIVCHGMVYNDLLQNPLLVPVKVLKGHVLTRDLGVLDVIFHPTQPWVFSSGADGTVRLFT

Assays:
[1] = biological target: MK67I (human (endogenous in HEK 293-F)) (UniProt Q9BYG3)
[2] = biological target: MK67I (human (endogenous in HEK 293-F)) (UniProt Q9BYG3); remark: listed apart in the source
[3] = biological target: DDX54 (human (endogenous in HEK 293-F)) (UniProt Q8TDD1); assay: cryo-EM structure
[4] = biological target: BOP1 (human (endogenous in HEK 293-F)) (UniProt Q14137); assay: cryo-EM structure

binding [1]: binds
Molecule: MAK16 (from UniProt Q9BXY0 1-300)

binding [1]: binds
B1: RRP1 (protein, UniProt P56182 1-461)
chain: MVSRVQLPPEIQLAQRLAGNEQVTRDRAVRKLRKYIVARTQRAAGGFTHDELLKVWKGLFYCMWMQDKPLLQEELGRTISQLVHAFQTTEAQHLFLQAFWQTMNREWTGIDRLRLDKFYMLMRMVLNESLKVLKMQGWEERQIEELLELLMTEILHPSSQAPNGVKSHFIEIFLEELTKVGAEELTADQNLKFIDPFCRIAARTKDSLVLNNITRGIFETIVEQAPLAIEDLLNELDTQDEEVASDSDESSEGGERGDALSQKRSEKPPAGSICRAEPEAGEEQAGDDRDSGGPVLQFDYEAVANRLFEMASRQSTPSQNRKRLYKVIRKLQDLAGGIFPEDEIPEKACRRLLEGRRQKKTKKQKRLLRLQQERGKGEKEPPSPGMERKRSRRRGVGADPEARAEAGEQPGTAERALLRDQPRGRGQRGARQRRRTPRPLTSARAKAANVQEPEKKKKRRE

binding [2]: binds
B2: SURF6 (protein, UniProt O75683 1-361)
chain: MASLLAKDAYLQSLAKKICSHSAPEQQARTRAGKTQGSETAGPPKKKRKKTQKKFRKREEKAAEHKAKSLGEKSPAASGARRPEAAKEEAAWASSSAGNPADGLATEPESVFALDVLRQRLHEKIQEARGQGSAKELSPAALEKRRRRKQERDRKKRKRKELRAKEKARKAEEATEAQEVVEATPEGACTEPREPPGLIFNKVEVSEDEPASKAQRRKEKRQRVKGNLTPLTGRNYRQLLERLQARQSRLDELRGQDEGKAQELEAKMKWTNLLYKAEGVKIRDDERLLQEALKRKEKRRAQRQRRWEKRTAGVVEKMQQRQDRRRQNLRRKKAARAERRLLRARKKGRILPQDLERAGLV

binding [2]: binds
B3: RRP15 (protein, UniProt Q9Y3B9 1-282)
chain: MAAAAPDSRVSEEENLKKTPKKKMKMVTGAVASVLEDEATDTSDSEGSCGSEKDHFYSDDDAIEADSEGDAEPCDKENENDGESSVGTNMGWADAMAKVLNKKTPESKPTILVKNKKLEKEKEKLKQERLEKIKQRDKRLEWEMMCRVKPDVVQDKETERNLQRIATRGVVQLFNAVQKHQKNVDEKVKEAGSSMRKRAKLISTVSKKDFISVLRGMDGSTNETASSRKKPKAKQTEVKSEEGPGWTILRDDFMMGASMKDWDKESDGPDDSRPESASDSDT

binding [1]: binds
B4: GNL3 (protein, UniProt Q9BVP2 1-549)
chain: MKRPKLKKASKRMTCHKRYKIQKKVREHHRKLRKEAKKRGHKKPRKDPGVPNSAPFKEALLREAELRKQRLEELKQQQKLDRQKELEKKRKLETNPDIKPSNVEPMEKEFGLCKTENKAKSGKQNSKKLYCQELKKVIEASDVVLEVLDARDPLGCRCPQVEEAIVQSGQKKLVLILNKSDLVPKENLESWLNYLKKELPTVVFRASTKPKDKGKITKRVKAKKNAAPFRSEVCFGKEGLWKLLGGFQETCSKAIRVGVIGFPNVGKSSIINSLKQEQMCNVGVSMGLTRSMQVVPLDKQITIIDSPSFIVSPLNSSSALALRSPASIEVVKPMEAASAILSQADARQVVLKYTVPGYRNSLEFFTVLAQRRGMHQKGGIPNVEGAAKLLWSEWTGASLAYYCHPPTSWTPPPYFNESIVVDMKSGFNLEELEKNNAQSIRAIKGPHLANSILFQSSGLTNGIIEEKDIHEELPKRKERKQEEREDDKDSDQETVDEEVDENSSGMFAAEETGEALSEETTAGEQSTRSFILDKIIEEDDAYDFSTDYV

binding [3]: binds
B5: NOP2/NIP7 complex (complex, UniProt P46087;Q9Y221)
chain 1: MGRKLDPTKEKRGPGRKARKQKGAETELVRFLPAVSDENSKRLSSRARKRAAKRRLGSVEAPKTNKSPEAKPLPGKLPKGISAGAVQTAGKKGPQSLFNAPRGKKRPAPGSDEEEEEEDSEEDGMVNHGDLWGSEDDADTVDDYGADSNSEDEEEGEALLPIERAARKQKAREAAAGIQWSEEETEDEEEEKEVTPESGPPKVEEADGGLQINVDEEPFVLPPAGEMEQDAQAPDLQRVHKRIQDIVGILRDFGAQREEGRSRSEYLNRLKKDLAIYYSYGDFLLGKLMDLFPLSELVEFLEANEVPRPVTLRTNTLKTRRRDLAQALINRGVNLDPLGKWSKTGLVVYDSSVPIGATPEYLAGHYMLQGASSMLPVMALAPQEHERILDMCCAPGGKTSYMAQLMKNTGVILANDANAERLKSVVGNLHRLGVTNTIISHYDGRQFPKVVGGFDRVLLDAPCSGTGVISKDPAVKTNKDEKDILRCAHLQKELLLSAIDSVNATSKTGGYLVYCTCSITVEENEWVVDYALKKRNVRLVPTGLDFGQEGFTRFRERRFHPSLRSTRRFYPHTHNMDGFFIAKFKKFSNSIPQSQTGNSETATPTNVDLPQVIPKSENSSQPAKKAKGAAKTKQQLQKQQHPKKASFQKLNGISKGADSELSTVPSVTKTQASSSFQDSSQPAGKAEGIREPKVTGKLKQRSPKLQSSKKVAFLRQNAPPKGTDTQTPAVLSPSKTQATLKPKDHHQPLGRAKGVEKQQLPEQPFEKAAFQKQNDTPKGPQPPTVSPIRSSRPPPAKRKKSQSRGNSQLLLS
chain 2: MRPLTEEETRVMFEKIAKYIGENLQLLVDRPDGTYCFRLHNDRVYYVSEKIMKLAANISGDKLVSLGTCFGKFTKTHKFRLHVTALDYLAPYAKYKVWIKPGAEQSFLYGNHVLKSGLGRITENTSQYQGVVVYSMADIPLGFGVAAKSTQDCRKVDPMAIVVFHQADIGEYVRHEETLT

binding [1]: binds
B6: WDR74 (protein, UniProt Q6RFH5 1-385)
chain: MAAAAARWNHVWVGTETGILKGVNLQRKQAANFTAGGQPRREEAVSALCWGTGGETQMLVGCADRTVKHFSTEDGIFQGQRHCPGGEGMFRGLAQADGTLITCVDSGILRVWHDKDKDTSSDPLLELRVGPGVCRMRQDPAHPHVVATGGKENALKIWDLQGSEEPVFRAKNVRNDWLDLRVPIWDQDIQFLPGSQKLVTCTGYHQVRVYDPASPQRRPVLETTYGEYPLTAMTLTPGGNSVIVGNTHGQLAEIDLRQGRLLGCLKGLAGSVRGLQCHPSKPLLASCGLDRVLRIHRIQNPRGLEHKVYLKSQLNCLLLSGRDNWEDEPQEPQEPNKVPLEDTETDELWASLEAAAKRKLSGLEQPQGALQTRRRKKKRPGSTSP

binding [2]: binds
B7: SSF1 (protein, UniProt Q9NQ55 1-473)
chain: MGQSGRSRHQKRARAQAQLRNLEAYAANPHSFVFTRGCTGRNIRQLSLDVRRVMEPLTASRLQVRKKNSLKDCVAVAGPLGVTHFLILSKTETNVYFKLMRLPGGPTLTFQVKKYSLVRDVVSSLRRHRMHEQQFAHPPLLVLNSFGPHGMHVKLMATMFQNLFPSINVHKVNLNTIKRCLLIDYNPDSQELDFRHYSIKVVPVGASRGMKKLLQEKFPNMSRLQDISELLATGAGLSESEAEPDGDHNITELPQAVAGRGNMRAQQSAVRLTEIGPRMTLQLIKVQEGVGEGKVMFHSFVSKTEEELQAILEAKEKKLRLKAQRQAQQAQNVQRKQEQREAHRKKSLEGMKKARVGGSDEEASGIPSRTASLELGEDDDEQEDDDIEYFCQAVGEAPSEDLFPEAKQKRLAKSPGRKRKRWEMDRGRGRLCDQKFPKTKDKSQGAQARRGPRGASRDGGRGRGRGRPGKRVA

binding [1]: binds
B8: RPF1 (protein, UniProt Q9H9Y2 1-349)
chain: MAKAGDKSSSSGKKSLKRKAAAEELQEAAGAGDGATENGVQPPKAAAFPPGFSISEIKNKQRRHLMFTRWKQQQRKEKLAAKKKLKKEREALGDKAPPKPVPKTIDNQRVYDETTVDPNDEEVAYDEATDEFASYFNKQTSPKILITTSDRPHGRTVRLCEQLSTVIPNSHVYYRRGLALKKIIPQCIARDFTDLIVINEDRKTPNGLILSHLPNGPTAHFKMSSVRLRKEIKRRGKDPTEHIPEIILNNFTTRLGHSIGRMFASLFPHNPQFIGRQVATFHNQRDYIFFRFHRYIFRSEKKVGIQELGPRFTLKLRSLQKGTFDSKYGEYEWVHKPREMDTSRRKFHL

binding [4]: binds
B9: BRX1-EBP2 complex (complex, UniProt Q8TDN6;Q99848)
chain 1: MAATKRKRRGGFAVQAKKPKRNEIDAEPPAKRHATAEEVEEEERDRIPGPVCKGKWKNKERILIFSSRGINFRTRHLMQDLRMLMPHSKADTKMDRKDKLFVINEVCEMKNCNKCIYFEAKKKQDLYMWLSNSPHGPSAKFLVQNIHTLAELKMTGNCLKGSRPLLSFDPAFDELPHYALLKELLIQIFSTPRYHPKSQPFVDHVFTFTILDNRIWFRNFQIIEEDAALVEIGPRFVLNLIKIFQGSFGGPTLYENPHYQSPNMHRRVIRSITAAKYREKQQVKDVQKLRKKEPKTLLPHDPTADVFVTPAEEKPIEIQWVKPEPKVDLKARKKRIYKRQRKMKQRMDSGKTK
chain 2: MDTPPLSDSESESDESLVTDRELQDAFSRGLLKPGLNVVLEGPKKAVNDVNGLKQCLAEFKRDLEWVERLDVTLGPVPEIGGSEAPAPQNKDQKAVDPEDDFQREMSFYRQAQAAVLAVLPRLHQLKVPTKRPTDYFAEMAKSDLQMQKIRQKLQTKQAAMERSEKAKQLRALRKYGKKVQTEVLQKRQQEKAHMMNAIKKYQKGFSDKLDFLEGDQKPLAQRKKAGAKGQQMRKGPSAKRRYKNQKFGFGGKKKGSKWNTRESYDDVSSFRAKTAHGRGLKRPGKKGSNKRPGKRTREKMKNRTH

binding [4]: binds
B10: RRS1 (protein, UniProt Q15050 1-365)
chain: MEGQSVEELLAKAEQDEAEKLQRITVHKELELQFDLGNLLASDRNPPTGLRCAGPTPEAELQALARDNTQLLINQLWQLPTERVEEAIVARLPEPTTRLPREKPLPRPRPLTRWQQFARLKGIRPKKKTNLVWDEVSGQWRRRWGYQRARDDTKEWLIEVPGNADPLEDQFAKRIQAKKERVAKNELNRLRNLARAHKMQLPSAAGLHPTGHQSKEELGRAMQVAKVSTASVGRFQERLPKEKVPRGSGKKRKFQPLFGDFAAEKKNQLELLRVMNSKKPQLDVTRATNKQMREEDQEEAAKRRKMSQKGKRKGGRQGPGGKRKGGPPSQGGKRKGGLGGKMNSGPPGLGGKRKGGQRPGGKRRK
